US12304931B2, “MENTSH analogs as therapeutics for diabetes, obesity, and their associated diseases and complications” (University of Southern California, priority 2016, dated 2025)
At least one peptide structure holds a part that was inferred or is arguable (an end, a ring closure or a residue). Ends that are not written are not given here.

Columns and labels:
human HepG2 liver cells = assay: Cholesterol levels in HepG2 cells; format: cell-based; conditions: 10 μM, within 48 hours of treatment
[1] = test system: rat pancreatic ins-1 cells; assay: Insulin secretion in ins-1 cells; format: cell-based; conditions: dose dependent, compared to glucose addition
3T3/pre-adipocytes = assay: MTT assay in 3T3/pre-adipocytes; format: cell-based
mice on normal chow = assay: 2-Week study of MENTSH administration in mice on normal diet; format: in vivo; conditions: 2.5-mg/kg intraperitoneal twice a day
muscle cell = assay: Glucose uptake in muscle cell in vitro; format: cell-based; conditions: in vitro administration
HEK293 cells = assay: MTT assay in HEK293 cells; format: cell-based
Akt [2] = assay: Akt signal transduction in differentiated 3T3 adipocytes; format: cell-based
[3] = test system: mice with diet-induced obesity; assay: Cholesterol levels in obese mice; format: in vivo; conditions: 2.5 mg/kg bid, in 72 hours
[4] = test system: mice fed a high fat diet (HFD); assay: 2-Week study of MENTSH administration in mice on a high fat diet; format: in vivo
[5] = Metabolomics of plasma of treated mice; format: in vivo
3T3 adipocytes = assay: Fat accumulation in vitro in 3T3 adipocytes; format: cell-based
Akt [6] = assay: Akt signal transduction in differentiated L6 myocytes; format: cell-based
[7] = animals on HFD compared to controls

With “MKPNPATQNLSMLLNYPH [MENTSH, MKPNPATQNLSMLLNYPH]” the “total cellular cholesterol levels” value (human HepG2 liver cells) was “decrease in cholesterol”, the insulin secretion [1] was “increasing insulin secretion” and the “bioactivity (MTT assay)” value (3T3/pre-adipocytes) was “Increases Bioactivity”. The bodyweight (mice on normal chow) was “does not change bodyweight”, the food intake (mice on normal chow) was “does not change bodyweight and food intake” and the glucose uptake (muscle cell) was “improves glucose uptake”. For the same sequence, the “bioactivity (MTT assay)” value (HEK293 cells) was “Decreases Bioactivity”, the “phosphorylated Akt” value (Akt [2]) was “phosphorylated Akt increase” and the cholesterol levels [3] was “reduce cholesterol levels”. The insulin levels [4, 7] was “decreased insulin levels”, the insulin sensitivity [4, 7] was “insulin sensitivity increased” and the weight gain ([4]; mice on HFD (60% Fat), 2.5-mg/kg intraperitoneal twice a day, 2 weeks) was “reduces weight gain”. The glucagon levels ([4]; mice on a HFD) was “decreases glucagon levels”, the glucose response ([4]; mice on a HFD) was “improves glucose response” and the food intake ([4]; mice on high-fat diet, 2.5-mg/kg intraperitoneal twice a day) was “does not change food intake”. For the same sequence, the “plasma fatty acid metabolites (metabolomics)” value [5] was “decrease of fatty acid metabolites”, the fat accumulation (3T3 adipocytes) was “decreasing fat accumulation” and the “phosphorylated Akt increase” value (Akt [6]) was “not observed”.
